Measurements: patent publication US20110046090A1, “MODULATION OF NEUROGENESIS WITH GABA AGENTS AND GABA ANALOGS” (BrainCells Inc., priority 2005, published 2011)

Test system: human neural stem cells (hNSCs)
Assay: neuronal differentiation of cultured human neural stem cells (TUJ-1 staining), agents alone and in combination;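 also: cells kept in mitogen-free test media, with growth-factor-free basal medium as the negative control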
Settings: Neural stem cell, read-out: EC50 for neuronal differentiation, agent alone, compound run individually, % of neuronal positive control, basal media subtracted

EC50: > 100 µM
Compound: CN1CCN(C2=Nc3cc(Cl)ccc3Nc3ccccc32)CC1 [clozapine, clozapin]
